According to PubChem BioAssay AID1439 (NMMLSC, 2008):
Among all 220,000 compounds or so, about 770 (0.35%) were called active. Inconclusive means that the source gave no clear call. Such entries were picked first, then a sample of the others. Rule as the data show it: active = binding response below about 49% or above about 150%; inconclusive = no clear call, values can overlap the other calls; inactive = in between.

Amino acid sequences for entries named in this document (tags omitted).
UniProt P09471, whole entry, looked up: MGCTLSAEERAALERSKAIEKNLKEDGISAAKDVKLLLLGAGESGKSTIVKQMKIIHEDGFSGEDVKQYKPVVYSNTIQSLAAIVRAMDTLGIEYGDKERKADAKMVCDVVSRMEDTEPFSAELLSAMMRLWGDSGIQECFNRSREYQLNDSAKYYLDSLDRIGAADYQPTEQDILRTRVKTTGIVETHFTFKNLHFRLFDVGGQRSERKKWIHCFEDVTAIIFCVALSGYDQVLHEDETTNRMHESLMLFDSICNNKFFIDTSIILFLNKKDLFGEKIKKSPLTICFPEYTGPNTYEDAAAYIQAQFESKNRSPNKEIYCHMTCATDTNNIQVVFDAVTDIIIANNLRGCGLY

These molecules were tested against Guanine nucleotide-binding protein G(o) subunit alpha (Homo sapiens) (UniProt P09471) (assay: RGS7-Galphao binding modulators, primary screen, biochemical, multiplexed bead flow cytometry (AID 1439;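 also: fluorescent Galphao held in activated GDP-AlF4 state binding bead-coupled RGS7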)). Conditions: at 10 µM, actives lie on both sides.
In the case of `CCCn1nnc(NC(=O)c2cccc(OCC)c2)n1`, the binding response (% of control) is reported as inactive: 110%.
With `Clc1ccccc1-c1nc(/C=N/N2CCOCC2)c2ccccn12` the binding response (% of control) was inconclusive: 107%.
With `O=C(Nc1c(Cl)ccc2nsnc12)c1ccco1` the binding response (% of control) was inconclusive: 106%.
In the case of `CCOC(CNC(=O)c1cccn2c(=O)c3cc(Cl)ccc3nc12)OCC`, the binding response (% of control) is reported as active: 48.1%.
`COc1ccccc1C(=O)C1CCCN(C(=O)c2cc(CC(C)C)nc(C)n2)C1` (stereo unspecified) was tested, and the binding response (% of control) was inactive: 104%.
In the case of `COc1cc(/C=N/Nc2cccc(C)c2)cc(Br)c1O`, the binding response (% of control) is reported as inconclusive: 101%.
In the case of `COc1ccc(/C=C/C(=O)OCC(=O)Nc2c(C)cccc2C)cc1`, the binding response (% of control) is reported as inconclusive: 85.6%.
In the case of `COc1ccc(N(C(=O)CCC(=O)Nc2cc(C)on2)C(C(=O)NC2CCCC2)c2ccco2)cc1` (stereo unspecified), the binding response (% of control) is reported as inconclusive: 86.6%.
With `CCCCc1c(C)[nH]c(=S)[nH]c1=O` the binding response (% of control) was inconclusive: 106%.
In the case of `CCN(CC)C(=O)CSc1nc(O)cc(=O)n1CC`, the binding response (% of control) is reported as active: 166% [activator].
`N#CCC(=O)N/N=C/c1coc2ccccc2c1=O` was tested, and the binding response (% of control) was inconclusive: 96.3%.
In the case of `COc1cccc2cc(C(=O)CC3(O)C(=O)N(Cc4ccccc4)c4ccccc43)c(=O)oc12` (stereo unspecified), the binding response (% of control) is reported as inactive: 102%.
`COC(=O)c1ccc(Nc2nc(C)cc(C)n2)cc1` was tested, and the binding response (% of control) was inactive: 102%.
For `Clc1ccc(C[n+]2cc(-c3ccc(Cl)cc3)n3c2CCC3)cc1`, the binding response (% of control) was inconclusive: -728%.
With `COc1ccc(-c2cc(-c3n[nH]c(=S)n3-c3cccc4ccccc34)[nH]n2)cc1` the binding response (% of control) was inconclusive: 83.6%.
`COc1ccc(C2c3ccc(O)cc3Oc3ncn(CCN4CCOCC4)c(=N)c32)cc1OC` (stereo unspecified) was tested, and the binding response (% of control) was inconclusive: 132%.
`COc1cc(C(=O)Nc2ccc3c(c2)CCN3C(C)=O)cc(OC)c1OC` was tested, and the binding response (% of control) was active: 186% [activator].
`S=C(NCCc1ccccc1)NC1CC2CCC(C1)N2Cc1ccccc1` (stereo unspecified) was tested, and the binding response (% of control) was inactive: 100%.
`O=C(O)CCC(=O)Nc1ccc(/C=C/C(=O)C2CC2)cc1` was tested, and the binding response (% of control) was inactive: 107%.
`Cc1ccc(N=C(N)N=C(N)N)c(C)c1` was tested, and the binding response (% of control) was inconclusive: 98.4%.
For `CN(CC(=O)Nc1ccc(N2CCOCC2)cc1)Cc1cc(=O)n2ccsc2n1`, the binding response (% of control) was inactive: 101%.
With `O=C(CSc1nnc(-c2ccco2)o1)c1ccc([N+](=O)[O-])cc1` the binding response (% of control) was inconclusive: 108%.
`COc1cc(OC)cc(/C(N)=N/O)c1` was tested, and the binding response (% of control) was inconclusive: 148%.
With `Cc1cccc(C)c1NC(=O)COC(=O)c1cc(=O)c2ccccc2o1` the binding response (% of control) was inconclusive: 107%.
With `CC(C)NC(=O)NC(=O)COC(=O)/C=C/c1ccc2c(c1)OCO2` the binding response (% of control) was inconclusive: 122%.
With `Cn1c(CBr)c(C(=O)c2ccc([N+](=O)[O-])cc2)c(=O)n(C)c1=O` the binding response (% of control) was inconclusive: 99.2%.
